Laboratory results taken from article PMC3236736, “Jamb and Jamc Are Essential for Vertebrate Myocyte Fusion” (PLoS Biology, 2011).
No constants are given. Whether binding was seen depends on the method and setting. Some binding calls cover weakened binding; strength is not graded here. Sequences can lack the tags named with a protein.

B1: Jamb extracellular domain fused to rat Cd4 domains 3 and 4 (Jamb-Cd4d3+4-6H; Jamb-Cd4d3+4-bio) (domain or fragment, zebrafish, UniProt A0A0R4IGV4 19-226, looked up)
chain: VTVSSRNPKVEVHEFSDAELSCEFKTEKDTNPRIEWKRKDKEKDVSFVYYGERFVGPFQDRADIEGATVRLRRVTQADAGEYRCEVSAPSDSISLGETNVTLRVLVPPQTPSCDVPSSALTGSQVELRCRDRHSIPPAVYTWYKDNRALPIRHPNATYTVNEFTGVLIPQSHYNPGTVCQHCMYHPNYHIPNTQLTTTFQTHDLNVAA
notes: Jamb (official symbol jam2a), zebrafish, Entrez Gene 100005261; Two forms with the same ectodomain were made; They are written as one molecule because the protein stood against itself in the homophilic test; also called Jam2a; zebrafish JAM-B orthologue; source: expressed as a soluble fusion protein, purified; not shown: rat Cd4 domains 3 and 4, C-terminal, kept; His6, C-terminal, kept
B2: Jamc extracellular domain fused to rat Cd4 domains 3 and 4 (Jamc-Cd4d3+4-6H; Jamc-Cd4d3+4-bio) (domain or fragment, zebrafish, UniProt A3KPA0 24-235, looked up)
chain: VLLKSTNSKPWVNEFESIELSCMIESITTTKPRIEWKKIKNGDPSYVYFDNQISGDLERRAKIREPATLVILNATRSDSADYRCEVTAPNDQKSFDEILISLTVRVKPVVPRCSVPKSIPVGKPAELHCLEDEGYPKSQYQWFRNKEEIPLDPKSSPKFFNSTYTLDGEMGTLKFSAVRKEDAGEYYCRAKNEAGISECGPQMMEVYDINIA
notes: Jamc (official symbol jam3b), zebrafish, Entrez Gene 569217; Two forms with the same ectodomain were made; They are written as one molecule because the protein stood against itself in the homophilic test; also called Jam3b; zebrafish JAM-C orthologue; source: expressed as a soluble fusion protein, purified; not shown: rat Cd4 domains 3 and 4, C-terminal, kept; His6, C-terminal, kept

How the values were obtained:
[1] = target: Jamb extracellular domain fused to rat Cd4 domains 3 and 4 (Jamb-Cd4d3+4-6H; Jamb-Cd4d3+4-bio) (zebrafish); assay: SPR; dissociation phase averaged over three concentrations of purified Jamc-Cd4d3+4-6H or Jamb-Cd4d3+4-6H analyte, fitted to a first-order decay; homophilic and heterophilic interactions; both purified
[2] = target: Jamc extracellular domain fused to rat Cd4 domains 3 and 4 (Jamc-Cd4d3+4-6H; Jamc-Cd4d3+4-bio) (zebrafish) (UniProt A3KPA0); assay: as above

binding [1] | binding [2] | Binder
binds weakly |  | B1
 | binds weakly | B2
